{"source": "the supplement of paper PMC8256030", "note": "Structures can show the parent of a compound that is named as a salt. The list shows a part of the results. Repeats in this data set agree poorly, so a single value says little.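 HEK293T cells were given each compound shortly before transfection with a reporter in which red mCherry is followed by the SARS-CoV-2 frameshift element and then GFP in the −1 frame, so GFP appears only after frameshifting.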", "data": [{"tested_on": "SARS-CoV-2 -1 PRF reporter mCherry-FSE-GFP(-1)", "test": "percent effect, decrease of GFP/mCherry ratio (-1 PRF reporter) relative to controls; higher = stronger frameshift inhibition", "conditions": "10 µM; 24 h; HEK293T", "units": {"percent effect": "%"}, "values": [{"smiles": "C[C@H]1[C@H](NC(=O)/C(=N\\OC(C)(C)C(=O)O)c2csc(N)n2)C(=O)N1S(=O)(=O)O", "note": "[Aztreonam]", "percent effect": -4.57}, {"smiles": "NCCCC[C@H](NC(=O)[C@@H]1CCCN1C(=O)[C@@H]1CSSC[C@H](N)C(=O)N[C@@H](Cc2ccccc2)C(=O)N[C@@H](Cc2ccccc2)C(=O)N[C@@H](CCC(N)=O)C(=O)N[C@@H](CC(N)=O)C(=O)N1)C(=O)NCC(N)=O", "note": "[Felypressin]", "percent effect": -1.72}, {"smiles": "Cc1c(C(=O)NN2CCCCC2)nn(-c2ccc(Cl)cc2Cl)c1-c1ccc(Cl)cc1", "note": "[rimonabant]", "percent effect": -2.17}, {"smiles": "CO/N=C(\\C(=O)N[C@@H]1C(=O)N2C(C(=O)O)=C(CSc3nnnn3C)CS[C@H]12)c1csc(N)n1", "percent effect": -1.58}, {"smiles": "O=C(O)COc1ccc(C(=O)/C=C/c2ccc(C(=O)O)cc2)cc1", "note": "[cinfenoac]", "percent effect": -6.35}, {"smiles": "C[C@H](NC(=O)[C@@H]1CCC(=O)N1)C(=O)N[C@@H](CCCCN)C(=O)N[C@@H](CO)C(=O)N[C@@H](CCC(N)=O)C(=O)NCC(=O)NCC(=O)N[C@@H](CO)C(=O)N[C@@H](CC(N)=O)C(=O)O", "note": "[nonathymulin]", "percent effect": -5.98}, {"smiles": "CCN(CC)CCS(=O)(=O)[C@@H]1CCN2C(=O)c3coc(n3)CC(=O)C[C@H](O)/C=C(C)/C=C/CNC(=O)/C=C/[C@@H](C)[C@@H](C(C)C)OC(=O)[C@@H]12", "note": "[dalfopristin]", "percent effect": -2.17}, {"smiles": "Cc1scc2c1N(C(=O)CN1CCN(C)CC1)c1ccccc1NC2=O", "note": "[telenzepine]", "percent effect": -2.73}, {"smiles": "C[C@@H]1C[C@H]2[C@@H]3C[C@H](F)C4=CC(=O)C=C[C@]4(C)[C@H]3[C@@H](O)C[C@]2(C)[C@H]1C(=O)CO", "note": "[Fluocortolone]", "percent effect": -0.645}, {"smiles": "Nc1ncn([C@@H]2O[C@H](CO)[C@@H](O)[C@H]2O)c(=O)n1", "note": "[azacitidine]", "percent effect": -11.6}, {"smiles": "O=C(NCCS(=O)(=O)O)c1cccs1", "note": "[taurosteine]", "percent effect": -7.93}, {"smiles": "CCOC(=O)[C@H](CCc1ccccc1)N[C@@H](C)C(=O)N1CC2(C[C@H]1C(=O)O)SCCS2", "note": "[Spirapril]", "percent effect": 0.209}, {"smiles": "CNCC(O)c1ccc(O)c(O)c1", "note": "[L-(+)-Epinephrine tartrate]", "percent effect": -4.12}, {"smiles": "CCN1CC(CCN2CCOCC2)C(c2ccccc2)(c2ccccc2)C1=O", "note": "(stereo not drawn)", "percent effect": -5.47}, {"smiles": "CC(OCCN1CCCCCC1)(c1ccccc1)c1ccc(Cl)cc1", "note": "(stereo not drawn) [setastine]", "percent effect": -0.895}, {"smiles": "CC(C)NCC(O)c1cc(O)cc(O)c1", "note": "(stereo not drawn) [orciprenaline]", "percent effect": -3.27}, {"smiles": "CO[C@H]1/C=C/O[C@@]2(C)Oc3c(C)c(O)c4c(O)c(cc(O)c4c3C2=O)NC(=O)/C(C)=C\\C=C\\[C@H](C)[C@H](O)[C@@H](C)[C@@H](O)[C@@H](C)[C@H](OC(C)=O)[C@@H]1C", "percent effect": -5.14}, {"smiles": "Oc1ncnc2[nH]ncc12", "percent effect": -1.4}, {"smiles": "CCn1cc(C(=O)O)c(=O)c2cc(F)c(N3CCN(C)CC3)cc21", "note": "[Pefloxacine mesylate dihydrate]", "percent effect": -1.37}, {"smiles": "CC[C@]1(O)C[C@@H]2CN(CCc3c([nH]c4ccccc34)[C@@](C(=O)OC)(c3cc4c(cc3OC)N(C)[C@H]3[C@@](O)(C(=O)OC)[C@H](OC(C)=O)[C@]5(CC)C=CCN6CC[C@]43[C@@H]65)C2)C1", "note": "[vinblastine]", "percent effect": -0.434}, {"smiles": "O=C(CCCN1CCC(O)(c2ccc(Br)cc2)CC1)c1ccc(F)cc1", "note": "[bromperidol]", "percent effect": -6.38}, {"smiles": "CN(C)CCOC(C)(c1ccccc1)c1ccc(Br)cc1", "note": "(stereo not drawn) [embramine]", "percent effect": -1.32}, {"smiles": "O=S1(=O)CCN(CN2CCS(=O)(=O)NC2)CN1", "note": "[taurolidine]", "percent effect": -1.95}, {"smiles": "C=C1CCO[C@]2([C@@H](O)[C@@](C)(O)CO)NC(=O)[C@@]1(O)NC2=O", "note": "[bicozamycin]", "percent effect": -1.06}, {"smiles": "Cc1ccc(F)cc1C(=O)Nc1ccc(C(=O)N2Cc3cccn3Cc3ccccc32)c(Cl)c1", "note": "[lixivaptan]", "percent effect": -5.08}, {"smiles": "C[C@@H](c1nc(-c2ccc(C#N)cc2)cs1)[C@](O)(Cn1cncn1)c1ccc(F)cc1F", "note": "[ravuconazole]", "percent effect": -16}, {"smiles": "COc1ccc2c(c1)N(CCCN(C)C)c1ccccc1S2", "note": "[methopromazine]", "percent effect": -0.341}, {"smiles": "C[C@H]1O[C@@H](O[C@H]2[C@@H](O)C[C@H](O[C@H]3[C@@H](O)C[C@H](O[C@H]4CC[C@@]5(C)[C@H](CC[C@@H]6[C@@H]5C[C@@H](O)[C@]5(C)[C@@H](C7=CC(=O)OC7)CC[C@]65O)C4)O[C@@H]3C)O[C@@H]2C)C[C@H](O)[C@@H]1O", "note": "[digoxin]", "percent effect": -20.2}]}]}
